PubChem BioAssay AID1259405 | NCATS, 2018

Screen: 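Knock-downs that lift recombinant protein yield in hamster ovary cells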 (primary screen)
Cell system: Chinese hamster CHO-K1 ovary cells with stable secreted eGFP expression
Reagent: single siRNA against mouse genes, 0.8 pmol siRNA per well (2 µl of 400 nM stock)
Timing: 3 days
Measured: 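Per-well intracellular GFP measured by laser scanning cytometry, plus viability from ATP luminescence, each relative to plate median of non-targeting control wells, in %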
Direction: GFP, % of control: higher = more GFP per well, higher productivity; viability (ATP), % of control: higher = more viable cells (more ATP)
Hit rule: 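Called active when intracellular GFP, relative to negative control, is at or above 120%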
Here is a random part of about 50,000 deposited reagents. Of all reagents, about 4,000 (8%) got an active call. 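Mouse siRNA library applied to hamster cells; one well for each siRNA.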 Reagents against one gene are numbered here. Reagent sequences are not shown.

target gene | siRNA no. | GFP, % of control | viability (ATP), % of control | outcome
Ferry3 (FERRY endosomal RAB5 effector complex subunit 3) | 1 | 75.9 | 86.3 | inactive
Ferry3 (FERRY endosomal RAB5 effector complex subunit 3) | 2 | 85.2 | 72.4 | inactive
Ferry3 (FERRY endosomal RAB5 effector complex subunit 3) | 3 | 90.4 | 93.5 | inactive
Spsb1 (splA/ryanodine receptor domain and SOCS box containing 1) | 1 | 93.6 | 94.4 | inactive
Spsb1 (splA/ryanodine receptor domain and SOCS box containing 1) | 2 | 66.7 | 78.6 | inactive
Rps25 (ribosomal protein S25) | 1 | 123 | 98.3 | active
Rps25 (ribosomal protein S25) | 2 | 178 | 72.7 | active
Rps25 (ribosomal protein S25) | 3 | 56.4 | 75.4 | inactive
Vps29 (VPS29 retromer complex component) | 1 | 51.8 | 58.1 | inactive
Vps29 (VPS29 retromer complex component) | 2 | 56.4 | 74.3 | inactive
Vps29 (VPS29 retromer complex component) | 3 | 58.4 | 93.7 | inactive
Trak2 (trafficking protein, kinesin binding 2) | 1 | 80.6 | 86.7 | inactive
Trak2 (trafficking protein, kinesin binding 2) | 2 | 54 | 31.2 | inactive
Trak2 (trafficking protein, kinesin binding 2) | 3 | 98.9 | 47.7 | inactive
Pecr (peroxisomal trans-2-enoyl-CoA reductase) | 1 | 117 | 65.8 | inactive
Pecr (peroxisomal trans-2-enoyl-CoA reductase) | 2 | 42.9 | 59.5 | inactive
Pecr (peroxisomal trans-2-enoyl-CoA reductase) | 3 | 36.6 | 48.6 | inactive
Nxpe4 (neurexophilin and PC-esterase domain family, member 4) | 1 | 75 | 54.7 | inactive
Nxpe4 (neurexophilin and PC-esterase domain family, member 4) | 2 | 61.2 | 83.6 | inactive
Nxpe4 (neurexophilin and PC-esterase domain family, member 4) | 3 | 116 | 121 | inactive
AI467606 (expressed sequence AI467606) | 1 | 76.4 | 76.5 | inactive
AI467606 (expressed sequence AI467606) | 2 | 98.1 | 77.3 | inactive
AI467606 (expressed sequence AI467606) | 3 | 92.3 | 86.2 | inactive
Morf4l2 (mortality factor 4 like 2) | 1 | 71.9 | 71.2 | inactive
Morf4l2 (mortality factor 4 like 2) | 2 | 73.2 | 80.5 | inactive
Morf4l2 (mortality factor 4 like 2) | 3 | 57.9 | 58.1 | inactive
Vdr (vitamin D (1,25-dihydroxyvitamin D3) receptor) | 1 | 40.4 | 43.1 | inactive
Vdr (vitamin D (1,25-dihydroxyvitamin D3) receptor) | 2 | 81.2 | 74.6 | inactive
Vdr (vitamin D (1,25-dihydroxyvitamin D3) receptor) | 3 | 40.4 | 39.5 | inactive
Gm9903 (predicted gene 9903) | 1 | 64.9 | 60.6 | inactive
Gm9903 (predicted gene 9903) | 2 | 83.1 | 65.5 | inactive
Gm9903 (predicted gene 9903) | 3 | 66.2 | 79.8 | inactive
Cib1 (calcium and integrin binding 1) | 1 | 71.4 | 64.3 | inactive
Or8b53 (olfactory receptor family 8 subfamily B member 53) | 1 | 79 | 62.3 | inactive
Or8b53 (olfactory receptor family 8 subfamily B member 53) | 2 | 190 | 62 | active
Or8b53 (olfactory receptor family 8 subfamily B member 53) | 3 | 67.6 | 91 | inactive

Next part (12 carried over from the part before).
target gene | siRNA no. | GFP, % of control | viability (ATP), % of control | outcome
Morf4l2 (mortality factor 4 like 2) | 2 | 73.2 | 80.5 | inactive
Morf4l2 (mortality factor 4 like 2) | 3 | 57.9 | 58.1 | inactive
Vdr (vitamin D (1,25-dihydroxyvitamin D3) receptor) | 1 | 40.4 | 43.1 | inactive
Vdr (vitamin D (1,25-dihydroxyvitamin D3) receptor) | 2 | 81.2 | 74.6 | inactive
Vdr (vitamin D (1,25-dihydroxyvitamin D3) receptor) | 3 | 40.4 | 39.5 | inactive
Gm9903 (predicted gene 9903) | 1 | 64.9 | 60.6 | inactive
Gm9903 (predicted gene 9903) | 2 | 83.1 | 65.5 | inactive
Gm9903 (predicted gene 9903) | 3 | 66.2 | 79.8 | inactive
Cib1 (calcium and integrin binding 1) | 1 | 71.4 | 64.3 | inactive
Or8b53 (olfactory receptor family 8 subfamily B member 53) | 1 | 79 | 62.3 | inactive
Or8b53 (olfactory receptor family 8 subfamily B member 53) | 2 | 190 | 62 | active
Or8b53 (olfactory receptor family 8 subfamily B member 53) | 3 | 67.6 | 91 | inactive
Or51f1e (olfactory receptor family 51 subfamily F member 1E) | 1 | 54 | 31.7 | inactive
Or51f1e (olfactory receptor family 51 subfamily F member 1E) | 2 | 123 | 96.9 | active
Or51f1e (olfactory receptor family 51 subfamily F member 1E) | 3 | 88.7 | 69 | inactive
Ggt6 (gamma-glutamyltransferase 6) | 1 | 87.6 | 116 | inactive
Ggt6 (gamma-glutamyltransferase 6) | 2 | 44.3 | 52.3 | inactive
Ggt6 (gamma-glutamyltransferase 6) | 3 | 52.2 | 87.7 | inactive
Myo1f (myosin IF) | 1 | 103 | 92.1 | inactive
Myo1f (myosin IF) | 2 | 39.3 | 53.6 | inactive
Abhd16a (abhydrolase domain containing 16A) | 1 | 79.8 | 32.7 | inactive
Abhd16a (abhydrolase domain containing 16A) | 2 | 63.7 | 79.2 | inactive
Abhd16a (abhydrolase domain containing 16A) | 3 | 79.4 | 71.7 | inactive
Hoxa13 (homeobox A13) | 1 | 70 | 73.3 | inactive
Hoxa13 (homeobox A13) | 2 | 52.4 | 64 | inactive
Hoxa13 (homeobox A13) | 3 | 135 | 103 | active
Apmap (adipocyte plasma membrane associated protein) | 1 | 63 | 58.1 | inactive
Apmap (adipocyte plasma membrane associated protein) | 2 | 32 | 39.2 | inactive
Apmap (adipocyte plasma membrane associated protein) | 3 | 79.7 | 92.9 | inactive
Degs2 (delta 4-desaturase, sphingolipid 2) | 1 | 70.6 | 74.4 | inactive
Degs2 (delta 4-desaturase, sphingolipid 2) | 2 | 98.6 | 62.1 | inactive
Degs2 (delta 4-desaturase, sphingolipid 2) | 3 | 105 | 105 | inactive
Zfp799 (zinc finger protein 799) | 1 | 51.4 | 61.4 | inactive
Zfp799 (zinc finger protein 799) | 2 | 87.2 | 96.5 | inactive
Wdr48 (WD repeat domain 48) | 1 | 50.2 | 58.9 | inactive
Wdr48 (WD repeat domain 48) | 2 | 76 | 69.6 | inactive
Wdr48 (WD repeat domain 48) | 3 | 43 | 68.1 | inactive
Or2n1b (olfactory receptor family 2 subfamily N member 1B) | 1 | 170 | 69.7 | active
Or2n1b (olfactory receptor family 2 subfamily N member 1B) | 2 | 47.9 | 63.8 | inactive
Or2n1b (olfactory receptor family 2 subfamily N member 1B) | 3 | 71.8 | 76.1 | inactive
Pfkfb4 (6-phosphofructo-2-kinase/fructose-2,6-biphosphatase 4) | 1 | 71.4 | 66.2 | inactive
Pfkfb4 (6-phosphofructo-2-kinase/fructose-2,6-biphosphatase 4) | 2 | 86.7 | 81.7 | inactive
Pfkfb4 (6-phosphofructo-2-kinase/fructose-2,6-biphosphatase 4) | 3 | 76.3 | 59.6 | inactive
Epb41l4b (erythrocyte membrane protein band 4.1 like 4b) | 1 | 90.5 | 91.6 | inactive
Epb41l4b (erythrocyte membrane protein band 4.1 like 4b) | 2 | 97.5 | 109 | inactive
Epb41l4b (erythrocyte membrane protein band 4.1 like 4b) | 3 | 74.7 | 48.8 | inactive
Trappc3 (trafficking protein particle complex 3) | 1 | 60.5 | 68.7 | inactive
Trappc3 (trafficking protein particle complex 3) | 2 | 136 | 93.4 | active
Trappc3 (trafficking protein particle complex 3) | 3 | 100 | 72.4 | inactive
Hoxa10 (homeobox A10) | 1 | 69.5 | 95.9 | inactive
Hoxa10 (homeobox A10) | 2 | 110 | 94.1 | inactive
Hoxa10 (homeobox A10) | 3 | 105 | 88.4 | inactive
Ears2 (glutamyl-tRNA synthetase 2, mitochondrial) | 1 | 76.8 | 74.8 | inactive
Ears2 (glutamyl-tRNA synthetase 2, mitochondrial) | 2 | 86.8 | 70.9 | inactive
Ears2 (glutamyl-tRNA synthetase 2, mitochondrial) | 3 | 181 | 61.9 | active
Rab12 (RAB12, member RAS oncogene family) | 1 | 85.7 | 77.2 | inactive
Rab12 (RAB12, member RAS oncogene family) | 2 | 11.9 | 24.5 | inactive
Rab12 (RAB12, member RAS oncogene family) | 3 | 68.9 | 75.4 | inactive
Or8b9 (olfactory receptor family 8 subfamily B member 9) | 1 | 101 | 44.2 | inactive
Or8b9 (olfactory receptor family 8 subfamily B member 9) | 2 | 25.6 | 9.57 | inactive
Or8b9 (olfactory receptor family 8 subfamily B member 9) | 3 | 91.7 | 106 | inactive
Gdpd5 (glycerophosphodiester phosphodiesterase domain containing 5) | 1 | 75.5 | 91 | inactive
Gdpd5 (glycerophosphodiester phosphodiesterase domain containing 5) | 2 | 90.6 | 69.1 | inactive
Gdpd5 (glycerophosphodiester phosphodiesterase domain containing 5) | 3 | 99.7 | 52.3 | inactive
Aldh1l2 (aldehyde dehydrogenase 1 family, member L2) | 1 | 84 | 71.8 | inactive
Aldh1l2 (aldehyde dehydrogenase 1 family, member L2) | 2 | 73.6 | 62.9 | inactive
Aldh1l2 (aldehyde dehydrogenase 1 family, member L2) | 3 | 79.2 | 81.6 | inactive
Nol6 (nucleolar protein family 6 (RNA-associated)) | 1 | 77.8 | 79.1 | inactive
Nol6 (nucleolar protein family 6 (RNA-associated)) | 2 | 102 | 82.2 | inactive
Or2j6 (olfactory receptor family 2 subfamily J member 6) | 1 | 68 | 42.8 | inactive
Or2j6 (olfactory receptor family 2 subfamily J member 6) | 2 | 104 | 83.5 | inactive
Or2j6 (olfactory receptor family 2 subfamily J member 6) | 3 | 64.2 | 64.2 | inactive
Gml2 (glycosylphosphatidylinositol anchored molecule like 2) | 1 | 89.9 | 88.5 | inactive
Gml2 (glycosylphosphatidylinositol anchored molecule like 2) | 2 | 86.7 | 71.1 | inactive
Gml2 (glycosylphosphatidylinositol anchored molecule like 2) | 3 | 94.2 | 72.4 | inactive
Csrnp2 (cysteine-serine-rich nuclear protein 2) | 1 | 38.5 | 38.8 | inactive
Csrnp2 (cysteine-serine-rich nuclear protein 2) | 2 | 57.6 | 64.8 | inactive
Csrnp2 (cysteine-serine-rich nuclear protein 2) | 3 | 75.8 | 77.5 | inactive
Nmt2 (N-myristoyltransferase 2) | 1 | 81.8 | 82.8 | inactive
Nmt2 (N-myristoyltransferase 2) | 2 | 94.2 | 125 | inactive
Nmt2 (N-myristoyltransferase 2) | 3 | 93.9 | 106 | inactive
Pgr (progesterone receptor) | 1 | 63.6 | 74.5 | inactive
Pgr (progesterone receptor) | 2 | 31.9 | 35.8 | inactive
Pgr (progesterone receptor) | 3 | 37.5 | 61.1 | inactive
